# Source: PubChem BioAssay AID1053173 (Broad Institute, 2014)
# By UniProt entry, the sequences of proteins in these tests, tags left out. Where a name states a change or a piece, a line headed by the entry shows the natural chain unless it says otherwise.
# UniProt O96028: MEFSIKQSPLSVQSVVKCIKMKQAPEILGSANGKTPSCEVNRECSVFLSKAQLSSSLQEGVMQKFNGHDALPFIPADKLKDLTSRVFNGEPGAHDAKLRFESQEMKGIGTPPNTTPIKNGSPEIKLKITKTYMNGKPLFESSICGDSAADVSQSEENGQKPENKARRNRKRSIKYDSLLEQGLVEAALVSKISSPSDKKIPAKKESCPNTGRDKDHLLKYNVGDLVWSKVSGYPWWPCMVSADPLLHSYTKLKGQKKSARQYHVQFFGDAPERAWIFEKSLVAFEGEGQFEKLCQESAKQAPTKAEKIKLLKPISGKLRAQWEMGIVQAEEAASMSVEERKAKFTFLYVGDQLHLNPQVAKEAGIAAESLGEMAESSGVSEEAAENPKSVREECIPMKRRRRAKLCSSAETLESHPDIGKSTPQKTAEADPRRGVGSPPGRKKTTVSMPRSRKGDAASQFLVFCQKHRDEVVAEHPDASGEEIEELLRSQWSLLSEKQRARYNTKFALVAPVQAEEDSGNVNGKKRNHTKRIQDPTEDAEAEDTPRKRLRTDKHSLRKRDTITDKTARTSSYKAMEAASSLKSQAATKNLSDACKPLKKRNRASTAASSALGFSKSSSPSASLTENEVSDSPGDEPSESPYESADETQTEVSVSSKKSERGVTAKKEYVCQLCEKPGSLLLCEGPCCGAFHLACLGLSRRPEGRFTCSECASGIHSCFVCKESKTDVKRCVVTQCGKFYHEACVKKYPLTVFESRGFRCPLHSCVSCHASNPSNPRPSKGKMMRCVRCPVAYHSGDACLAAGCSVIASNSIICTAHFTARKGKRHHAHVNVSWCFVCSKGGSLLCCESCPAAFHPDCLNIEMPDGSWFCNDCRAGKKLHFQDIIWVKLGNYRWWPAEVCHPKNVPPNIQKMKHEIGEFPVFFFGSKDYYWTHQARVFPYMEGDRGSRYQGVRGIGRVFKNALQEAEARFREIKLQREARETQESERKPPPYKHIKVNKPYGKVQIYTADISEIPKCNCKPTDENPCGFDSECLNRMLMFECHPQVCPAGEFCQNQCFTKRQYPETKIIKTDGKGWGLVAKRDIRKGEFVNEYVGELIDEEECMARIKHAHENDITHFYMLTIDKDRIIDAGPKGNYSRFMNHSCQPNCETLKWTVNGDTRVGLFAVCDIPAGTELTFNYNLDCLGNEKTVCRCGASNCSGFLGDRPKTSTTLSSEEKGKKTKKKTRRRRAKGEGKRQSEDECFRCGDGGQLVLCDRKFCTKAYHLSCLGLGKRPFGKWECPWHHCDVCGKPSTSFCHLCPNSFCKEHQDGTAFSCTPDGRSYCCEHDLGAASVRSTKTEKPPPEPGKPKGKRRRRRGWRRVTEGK
# About 390 (26%) of roughly 1,500 compounds were called active. The rule behind the calls is not given here. Only a part is listed here, and it is no random draw. Entries with a potency or affinity are not part of this list.
# Biological target: Histone-lysine N-methyltransferase NSD2 (Homo sapiens) (UniProt O96028)
# Assay: NSD2 methyltransferase inhibitors, dose response, biochemical, AlphaScreen, cherry-picked samples (AID 1053173);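 note: 0% = neutral control wells and -100% = positive control wells on each plate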
# Conditions: NSD2 H4 peptide methylation, 120 min; at 10 µM (top of the series)
row,SMILES,"activity change, negative = inhibition"
1,O=C1NC(=O)C(Sc2ccccc2[N+](=O)[O-])C(=O)N1,inactive: -5.49%
2,CC(C)n1c(=O)c(C=Nc2ccc(S(N)(=O)=O)cc2)c(O)n(Cc2ccco2)c1=O,inactive: -1.36%
3,COCCCNC(=O)c1c(NC(=O)c2ccco2)n(Cc2ccccc2)c2nc3ccccc3nc12,inactive: 3.29%
4,Cc1ccc(N2C(=O)NC(=O)/C(=C/c3ccc(OC(=O)c4cccs4)cc3)C2=O)cc1,inactive: -2.22%
5,Cn1c(=O)[nH]c2nncnc2c1=O,inactive: -1.88%
6,CCNC(=S)NCCC1=c2ccccc2=N/C1=C\c1c(O)n(C)c(=O)n(C)c1=O,inactive: -4.12%
7,Nc1c(C(=O)NC2CCCC2)c2nc3ccccc3nc2n1CC1CCCO1 (stereo not given),inactive: 4.53%
8,O=C1NC(=O)N(c2ccccc2)C(=O)/C1=C/c1ccoc1,inactive: -4.29%
9,CC(=O)N(C)C1=Nc2ccc(Cl)cc2C(c2ccccc2)=[N+]([O-])C1,inactive: -2.62%
10,Cn1c(O)c(/C=C/C=Nc2ccccc2)c(=O)n(C)c1=S,inactive: -0.067%
11,Cc1c(C(=O)O)cccc1-n1c(C)cc(/C=C2\C(=O)NC(=O)N(c3ccc4c(c3)OCO4)C2=O)c1C,inactive: -12.3%
12,CCCCCn1c(N)c(C(=O)NCc2cccs2)c2nc3ccccc3nc21,inactive: 0.109%
13,CC1(C)CC(=O)C2=C(C1)NC(=O)C21C(C(=O)OC(C)(C)C)=C(N)Oc2ccc(Br)cc21 (stereo not given),inactive: -0.106%
14,COCCN1C(=O)/C(=C/c2c(OC)cc(OC)cc2OC)C(=O)N(c2ccccc2)C1=O,inactive: -4.09%
15,CC(C)c1ccc(N2C(=O)NC(=O)/C(=C\C=C\c3ccco3)C2=O)cc1,inactive: -11.6%
16,Cc1ccc(N2C(=O)NC(=O)/C(=C/c3cnn(-c4ccc(C)cc4)c3)C2=O)cc1,inactive: -8.44%
17,CCOc1cc(/C=C2\C(=O)NC(=O)N(CCc3ccc(F)cc3)C2=O)ccc1O,inactive: -4.5%
18,Fc1ccc(Cn2nnnc2C(c2ccc(Cl)cc2)N2CC=C(c3ccc(F)cc3)CC2)cc1 (stereo not given),inactive: -4.62%
19,COc1cc(O)cc2c1C(=O)OC(C)CCCC(=O)CCC/C=C\2 (stereo not given),inactive: 1.48%
20,CCCCn1c(N)c(C(=O)OCC2CCCO2)c2nc3ccccc3nc21 (stereo not given),inactive: 3.04%
21,COCCNC(=O)c1c(NC(=O)c2ccco2)n(Cc2ccccc2)c2nc3ccccc3nc12,inactive: 13.2%
22,Clc1ccccc1Nc1ncnc(-n2cccc2)n1,inactive: -2.42%
23,CCN1C[C@]2(CO)CC[C@H](OC)[C@@]34C2[C@H](OC)[C@@](O)(C13)[C@@]1(O)C[C@H](OC)[C@H]2C[C@@H]4[C@@H]1[C@H]2OC,inactive: -5.24%
24,O=C(c1cc2ccccc2oc1=O)N1CCC2(CC1)OCCO2,inactive: -2.87%
25,COCCCn1c(N)c(C(=O)OCCOC)c2nc3ccccc3nc21,inactive: -1.56%
26,COc1cccc(N2C(=O)NC(=O)/C(=C\c3ccc([N+](=O)[O-])s3)C2=O)c1,inactive: -13.7%
27,O=[N+]([O-])c1ccc(N2CCCC2)c2ccncc12,inactive: -4.53%
28,CN(C)C(CNC(=O)Cc1ccc(Br)cc1)c1ccccc1 (stereo not given),inactive: -2.02%
29,CCCCn1c(NS(=O)(=O)c2ccccc2)c(C(=O)OCC)c2nc3ccccc3nc21,inactive: -0.46%
30,O=C1NC(=S)NC(=O)C1=Cc1ccc(Br)s1,inactive: -5.38%

# Some of these compounds in order of formula weight, high to low.
row,SMILES,"activity change, negative = inhibition"
25,COCCCn1c(N)c(C(=O)OCCOC)c2nc3ccccc3nc21,inactive: -1.56%
30,O=C1NC(=S)NC(=O)C1=Cc1ccc(Br)s1,inactive: -5.38%
24,O=C(c1cc2ccccc2oc1=O)N1CCC2(CC1)OCCO2,inactive: -2.87%
